Results as given in US7179446B2, “Simultaneous imaging of cardiac perfusion and a vitronectin receptor targeted imaging agent” (Bristol-Myers Squibb Pharma Company, priority 2000, dated 2007).
Not every detail of the peptide structures is certain; ends, links or a residue may be inferred. Some entries repeat one wording, which the source may state once for all of them.

System: areas of endothelial damage, vulnerable plaque or angiogenesis in the heart
Test: Simultaneous imaging of In-111 labeled vitronectin antagonist compound and Tc99m cardiac perfusion agent (Example 67)
Type: in vivo
Conditions: human, ~1–10 mCi of ^111In, approximately 0.5 to 6 hours following injection
Procedure: The compound of Examples 54, 55 or 56 is administered to a human at a level of ˜1–10 mCi of ^111In before, together with, or after the adminstration of a ^99mTc cardiac perfusion imaging agent (e.g. 10–40 mCi of ^99mTc-Sestamibi). […] The simultaneous imaging of the In-111 labeled vitronectin antagonist compound and the Tc99m cardiac perfusion agent is carried out by a method such as that reported by White (White, S A, Mueller, D H, Smith H E, et al. J Nucl Med Tech 1984, 12: 124–125) or Hillel (Hillel P G, Tindale W B, Taylor C J, et al. Nucl Med Conmun 1998, 19, 761–769).

| SMILES | localization of the ^111In-labeled vitronectin receptor targeted diagnostic radiopharmaceutical |
| --- | --- |
| N=C(N)NCCC[C@@H]1NC(=O)[C@H](CCCCNC(=O)CC[C@H](NC(=O)CN2CCN(CC(=O)O)CCN(CC(=O)O)CCN(CC(=O)O)CC2)C(=O)NCCCC[C@@H]2NC(=O)[C@@H](Cc3ccccc3)NC(=O)[C@H](CC(=O)O)NC(=O)CNC(=O)[C@H](CCCNC(=N)N)NC2=O)NC(=O)[C@@H](Cc2ccccc2)NC(=O)[C@H](CC(=O)O)NC(=O)CNC1=O [Example 54, (DOTA-^111In)-Glu(cyclo{Lys-Arg-Gly-Asp-D-Phe})-cyclo{Lys-Arg-Gly-Asp-D-Phe}, metal not drawn] | localized in the areas of endothelial damage, vulnerable plaque or angiogenesis in the heart |
| N=C(N)NCCC[C@@H]1NC(=O)[C@H](CCCCNC(=O)CN(CCN(CCN(CC(=O)O)CC(=O)O)CC(=O)O)CC(=O)O)NC(=O)[C@@H](Cc2ccccc2)NC(=O)[C@H](CC(=O)O)NC(=O)CNC1=O [Example 55, cyclo(Arg-Gly-Asp-D-Phe-Lys(DTPA-^111In)), metal not drawn] | localized in the areas of endothelial damage, vulnerable plaque or angiogenesis in the heart |
| N=C(N)NCCC[C@@H]1NC(=O)[C@H](CCCCNC(=O)CN(CCN(CCN(CC(=O)O)CC(=O)NCCCC[C@@H]2NC(=O)[C@@H](Cc3ccccc3)NC(=O)[C@H](CC(=O)O)NC(=O)CNC(=O)[C@H](CCCNC(=N)N)NC2=O)CC(=O)O)CC(=O)O)NC(=O)[C@@H](Cc2ccccc2)NC(=O)[C@H](CC(=O)O)NC(=O)CNC1=O [Example 56, cyclo(Arg-Gly-Asp-D-Phe-Lys)2(DTPA-^111In), metal not drawn] | localized in the areas of endothelial damage, vulnerable plaque or angiogenesis in the heart |
